Hit rate of the full screen: of about 210,000 compounds, about 5,900 (2.8%) were called active. Another 5% or so got no clear call; they are omitted. The call rests on the fitted dose curve; in most records, active means well fitted activation curve with a large enough effect; inconclusive means small, poorly fitted or top-dose-only effect; inactive means no such curve, though single readings can be large or run the other way. The entries are a selection whose mix differs from that of the whole data set. The source gives no active or inactive call for entries shown without one.
Experiment: qHTS Assay for Enhancers of SMN2 Splice Variant Expression; further: nearly all actives have a fitted effect of over 55% in size; on activity change, positive = activation: % of control where 0% means no effect
Details: HEK293 SMN2-luciferase splicing reporter, luminescence, 30-36 h; activity change, positive = activation: at 46.1 µM (top of the series) unless noted
Source text: NIH Chemical Genomics Center [NCGC] NIH Molecular Libraries Probe Production centers Network [MLPCN] MLPCN Grant: R03 MH084179-01 Assay Submitter (PI): Elliot Androphy NCGC Assay Overview: Spinal muscular atrophy (SMA) is caused by insufficient levels of the survival motor neuron protein SMN. The SMN locus on chromosome 5q13 contains two inverted copies of SMN called SMN1 and SMN2 which are 99% identical at the amino acid level. SMN1 is a fully functional protein and SMN2 skips exon 7 90% of the time. Skipping of exon 7 produces non-functional protein product. 10% of the SMN2 protein includes exon 7 and is fully functional. In the SMA disease state, mutations in the SMN1 locus are the cause of the disease state. Because only 10% of SMN2 is of the fully functional form, it is not sufficient to overcome the deficiency produced by the loss of the SMN1 product. A therapy that either increase the amount of SMN2 product made or to increase the inclusion of exon 7 has been proposed for the treatment of SMA. We have designed an assay to identify small molecules that can increase the amount of functional SMN2 product by appending a luciferase reporter gene after the native SMN2 gene, such that inclusion of exon 7 in the expressed product places the luciferase sequence in frame, thus generating functional luciferase enzyme.
NCGC Assay Protocol Summary: This screen utilizes a luciferase reporter gene assay, combining the promoter and splicing based cassettes in tandem with the major portion of the native SMN2 cDNA, and then transfected into HEK293 cells. Compounds that increase luciferase signal presumably enhance expression of the functional SMN2 splice variant. Passaging media contained DMEM w/ glutamax (+phenol red) 10% FCS, 1x pen/strep, 200 ug/ml hygro, 1x sodium pyruvate. Assay media contained DMEM w/ glutamax (-phenol red) 10% FCS, 1x pen strep, 1x pyruvate Sequence, Parameter, Value, Description (1) Cells, […], 2000 cells/well, 1536 TC treated White solid bottom plate (2) Time, 10-12 hours, 37C 5% CO2 (3) Compound, 23 nl, MLSMR Library (4) Control Compound, 23 nL, Sodium butyrate st 4.5mM (final) conc (5) Time, 30-36 hours, 37C 5% CO2 (6) Reagent, 3 ul, One Glo (TM) from Promega (7) Time, 5-15 minutes, Room temp (8) Detector, Viewlux: luminescent read, 60 second integration, high speed 2x binning Keywords: Spinal muscular atrophy, SMA, SMN2, high throughput screening, MLSMR, MLPCN, NIH Roadmap, qHTS and NCGC
For `COc1cccc(NC(=O)N2CCN(c3nnnn3-c3ccccc3)CC2)c1`, the “activity change, positive = activation” value was inactive: -28.2%. With `Cc1ccc(C(=O)Oc2ccc3c(c2)ncn3C)cc1` the activity change, positive = activation was 36.7%. In the case of `COc1cc(C(c2c(C)[nH][nH]c2=O)c2c(C)[nH][nH]c2=O)ccc1OS(=O)(=O)c1ccccc1`, the activity change, positive = activation was 30.6%. `CCC(=O)Nc1nnc(Cc2ccccc2)s1` showed an activity change, positive = activation of 86.7%. For `O=S(=O)(Nc1nccs1)c1cc(Cl)ccc1Cl`, the activity change, positive = activation was 39.8%. For `Cc1ccc2c(c1)[C@@H]1CN(C)CC[C@@H]1N2S(=O)(=O)c1ccc([N+](=O)[O-])cc1`, the activity change, positive = activation was -31.8%. For `Cc1cc(-n2c(C)cc(C(=O)CSc3nnnn3-c3ccccc3)c2C)no1`, the “activity change, positive = activation” value was inactive: -34.3%. `CC(=O)CSc1nc2cc3c(cc2cc1C#N)OCCO3` gave an activity change, positive = activation of 22.9%. Compound `Cn1c(=O)c2c(nc(SCC(=O)NCC3CCCO3)n2C)n(C)c1=O` (stereo not given) has an activity change, positive = activation of 27.4%. With `O=C(Nc1ccc(N2CCCCC2)c(Cl)c1)c1ccc(N2CCOCC2)c([N+](=O)[O-])c1` the “activity change, positive = activation” value was inactive: -31.4%. For `O=C(O)c1ccc(Cl)cc1Cl`, the “activity change, positive = activation” value was inactive: -2.25%. Compound `Cn1c(CN2CCOCC2)nc2cc(NC(=O)c3ccc(F)cc3)ccc21` has an activity change, positive = activation of -72.1%. With `O=C(Cc1cccs1)N/N=C\c1ccc(O)cc1` the activity change, positive = activation was 47.6%. With `Cc1ccc2nc(-c3ccc(NC(=O)CN4C(=O)c5ccccc5C4=O)cc3)sc2c1` the Potency was active: 2.82 µM. For `CCCSc1cc(=O)n(-c2ccc(F)cc2)nc1C(=O)OCC`, the activity change, positive = activation was 36.8%. In the case of `COc1ccc(C(=O)N2CCOCC2)cc1Br`, the activity change, positive = activation was 33.5%. Work on `CCOC(=O)CNC(=S)N(Cc1ccccc1F)C1CCCCC1` yielded an activity change, positive = activation of -1.4%. For `Cc1ccc2nc(NC(=S)NC(=O)c3ccco3)sc2c1`, the Potency was active: 11.2 µM. With `O=c1oc2ccccc2cc1-c1csc(Cc2nc(-c3ccc(Cl)cc3)cs2)n1` the “activity change, positive = activation” value was inactive: -76%. For `COc1ccc(NC(=O)CSc2nc(-c3ccc(OC)c(OC)c3)[nH]c2-c2ccc(C)cc2)cc1`, the activity change, positive = activation was 36.7%. Work on `Cc1nc(CN2CCN(C(=O)NC3(c4ccccc4)CC3)CC2)cs1` yielded an activity change, positive = activation of 41.5%. With `CCNc1nc(NC(C)CC)nc(Oc2ccc(OCC)nn2)n1` (stereo not given) the Potency was active: 5.62 µM. `CCOCCc1nnc(N)s1` showed an activity change, positive = activation of 42.2%. `CCC(C)NC(=O)CCC(=O)NNc1nc2ccccc2c2nc(C)nn12` (stereo not given) showed an activity change, positive = activation of 42.4%. In the case of `CN(CCC#N)C(=O)COC(=O)c1c2c(nc3ccccc13)/C(=C/c1ccco1)CC2`, the Potency was active: 22.4 µM. `C/C(=N/Nc1cc(-c2ccccc2)nc(-c2ccccc2)n1)c1ccc(O)cc1` showed an activity change, positive = activation of -101%. In the case of `COc1cc(C(=O)Nc2ccc3c(c2)OCCO3)ccc1OC(F)F`, the Potency was active: 14.1 µM. With `CS(=O)(=O)N1CCN(c2ccccc2NC(=O)c2cccs2)CC1` the activity change, positive = activation was 40.3%. For `Cc1ccc(S(=O)(=O)NCCC(c2ccccc2)c2ccco2)cc1` (stereo not given), the activity change, positive = activation was -57.1%. With `COc1ccc(/C=C/C2=CCN(Cc3ccc(OC)cc3)CC2)cc1` the “activity change, positive = activation” value was inactive: -50.8%. In the case of `COc1ccccc1NC(=O)Nc1ccncc1`, the “activity change, positive = activation” value was inactive: -34.3%. With `CCOc1ccc(/C=C2/C(=O)N(c3ccc(OC)cc3)C(=S)N2CC(=O)OC)cc1OCC` the Potency was active: 12.6 µM. With `Cc1cccc(NC(=S)NNC(=O)c2csc(C)c2)c1` the activity change, positive = activation was 40.6%. For `COc1ccc(-c2nc3c(c4c2C[C@H](c2ccccc2)OC4)CN(C(=O)c2cc(I)ccc2F)CC3)c(C)c1`, the activity change, positive = activation was inactive: -10.6% [at 9.22 µM]. `COc1ccccc1N(CC(=O)Nc1ccc(S(=O)(=O)N2CCCCC2)cc1)S(C)(=O)=O` showed an activity change, positive = activation of 47.5%. Compound `CC(C)NS(=O)(=O)c1ccc(CCC(=O)NCc2ccco2)cc1` has an activity change, positive = activation of 56.8%. In the case of `Cc1cccc(N2CCN(C(=O)c3cn4ccccc4n3)CC2C)c1` (stereo not given), the “activity change, positive = activation” value was inactive: -65.6%. With `S=C(NCCc1ccccc1)NC1CCCCCC1` the Potency was active: 12.6 µM. `CC(=O)c1cc2c(cc1NS(=O)(=O)c1ccc(C)cc1)OCO2` gave an activity change, positive = activation of -36.7%. With `O=C(Nc1ccc(-c2nc3ccccc3o2)c(O)c1)c1cc(-n2cnnc2)ccc1Cl` the “activity change, positive = activation” value was inactive: -102%. Work on `Cn1nc(C(C)(C)C)cc1C(=O)NCc1ccc(N2CCCC2=O)cc1` yielded an activity change, positive = activation of -87.1%. `O=S(=O)(NCCSc1nnnn1-c1ccccc1)c1cccs1` gave an activity change, positive = activation of 44.3%. `CC(=C1C(=O)c2ccccc2C1=O)N1CCC(C(N)=O)(N2CCCCC2)CC1` showed an activity change, positive = activation of 32.1%. `Cc1cccc(NC(=O)c2cc3n(n2)C(C(F)(F)F)CC(c2ccc4c(c2)OCO4)N3)c1` (stereo not given) showed an activity change, positive = activation of 36.7%. With `C=CCC1C=C(C)CC(CC=C)N1` (stereo not given) the “activity change, positive = activation” value was inactive: 3.08%. `Cn1c(=O)c2c(ncn2Cc2cc(-c3ccccc3)no2)n(C)c1=O` gave an activity change, positive = activation of -41.3%. With `N#Cc1ccc(CSc2nnc(-c3ccccn3)n2-c2ccccc2)cc1` the “activity change, positive = activation” value was inactive: -29.6%. Work on `N#C/C(=C\c1ccc([N+](=O)[O-])cc1)c1ccccn1` yielded an activity change, positive = activation of 107%. Work on `COc1ccc(-c2nn(CC(=O)N(C)C)c(=O)c3ccccc23)cc1` yielded an activity change, positive = activation of 68.5%. In the case of `COC(=O)c1ccccc1NC(=O)C1COc2ccccc2O1` (stereo not given), the activity change, positive = activation was 27.6%. With `CCOc1ccc(-n2c(=S)sc3c(=O)[nH]c(SCC(=O)N4CCC(C)CC4)nc32)cc1` the “activity change, positive = activation” value was inactive: -47.7%. `CSc1nnc2n(C3CCCCC3)c(=O)c3c4c(sc3n12)CCCC4` gave an activity change, positive = activation of 52.2%. For `O=C(O)CCCCCNS(=O)(=O)c1cccc2nsnc12`, the activity change, positive = activation was 71%. In the case of `CCC(C)c1ccc(OCCn2ccnc2)cc1` (stereo not given), the “activity change, positive = activation” value was inactive: -30%. Work on `c1ccc(-c2nc(N3CCCCC3)nc3ccccc23)cc1` yielded an activity change, positive = activation of -55.8%. In the case of `COc1cc(/C=C(\C#N)C(=O)N2CCOCC2)cc(Br)c1O`, the activity change, positive = activation was -41.9%. Work on `COC(=O)c1ccc(OCCN2C3=NCCN3c3ccccc32)cc1` yielded an activity change, positive = activation of 57.7%. For `O=C(CSCc1cccs1)N1CCCC1`, the Potency was active: 12.6 µM. In the case of `Cc1cc(=O)oc2c1ccc1oc(/C(=N/O)c3ccccc3)c(C)c12`, the activity change, positive = activation was -52%. With `Cc1nc(-c2ccccc2)sc1-c1ccnn1C` the Potency was active: 12.6 µM. For `CC(C)NC(=O)c1nc2ccccc2s1`, the activity change, positive = activation was 41.7%. In the case of `COc1cccc(C(=O)/C=C/Nc2cc(C)ccc2O)c1`, the activity change, positive = activation was 30.3%. `Oc1ccccc1C(=S)N1CCCCCC1` gave an activity change, positive = activation of 36.8%. Compound `COc1ccc(C(=O)NCC(C)(C)SCc2c(C)cc(C)cc2C)cc1` has an activity change, positive = activation of -31%. For `CC1=CCC2([N+](=O)[O-])CN(CC(=O)O)CC1([N+](=O)[O-])C2` (stereo not given), the activity change, positive = activation was -17.3%. For `CCCc1nc([N+](=O)[O-])c(S(=O)(=O)c2ccccc2)n1CC(C)C`, the “activity change, positive = activation” value was inactive: -46.4%. With `CC(=O)N(C)c1ccc(OCC(O)Cn2c3ccc(Cl)cc3c3cc(Cl)ccc32)cc1` (stereo not given) the “activity change, positive = activation” value was inactive: -128%. With `Fc1cccc(Cl)c1-c1nnc2ccc3ccccc3n12` the “activity change, positive = activation” value was inactive: -51.4%. For `COc1ccc(-c2nc3ccccc3s2)cc1NC(=O)COc1ccc(C)cc1`, the Potency was active: 1.26 µM. `COc1ccc(S(=O)(=O)Nc2ccc(C)cc2)cc1N(C)S(=O)(=O)c1ccc(Cl)cc1` gave an activity change, positive = activation of -48%.
Potency means the concentration at half of the fitted maximal effect.
